# In all, about 320,000 compounds went through this assay and about 22,000 (6.9%) were called active. Inconclusive results, whose numbers are uncertain, are shown with a selection of clear calls. Calls come from the whole dose curve; as a rule, active = well fitted inhibition curve with a large enough effect; inconclusive = small, poorly fitted or top-dose-only effect, or another doubt; inactive = no such curve, though single readings can be large or run the other way. A potency beside an inconclusive call is a rough fit, not a confirmed value.
# Experiment: Primary qHTS for delayed death inhibitors of the malarial parasite plastid, 96 hour incubation
# Settings: P. falciparum luciferase reporter growth; series mostly up to 28.7 µM
# In short: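 Parasite growth measured via integrated firefly luciferase reporter in P. falciparum. Infected erythrocytes at 2% hematocrit, 0.05% parasitemia final were treated 96 hours at 37 C under 5% CO2, and luminescence was read.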
# Potency is the fitted concentration of half-maximal effect.
row,SMILES,Potency
1,CC1CCc2c(sc3nc(CSc4n[nH]c(N)n4)[nH]c(=O)c23)C1 (stereo not drawn),inactive
2,Cc1cccc(C)c1NC(=O)C(NS(=O)(=O)c1cccs1)c1ccccc1 (stereo not drawn),"inconclusive: 9.28 µM [inhibitor, single point]"
3,COc1ccc(N2CCN(C(=O)C3CCCN(S(=O)(=O)c4c(C)noc4C)C3)CC2)cc1 (stereo not drawn),"inconclusive: 9.28 µM [inhibitor, partial curve, poor fit]"
4,CCN1CCN(C(c2cccs2)C(C)NS(=O)(=O)c2ccc(Br)cc2)CC1 (stereo not drawn),"inconclusive: 16.5 µM [inhibitor, single point]"
5,COc1ccccc1NC(=O)CCCn1c(=S)[nH]c2ccccc2c1=O,inactive
6,O=C(NNC(=O)c1ccco1)c1ccccc1,inactive
7,O=C(NCCC1=CCCCC1)c1ccc(Cl)c(S(=O)(=O)Nc2ccccc2)c1,"inconclusive: 18.5 µM [inhibitor, single point]"
8,c1ccc(CN=C2NN=C(c3cc4ccccc4o3)CS2)cc1,"inconclusive: 0.0037 µM [inhibitor, full curve, poor fit]"
9,O=C1C(=O)N(CCCc2ccccc2)c2ccccc21,active: 10.4 µM
10,N/C(=N\OC(=O)COc1ccccc1Cl)c1ccc(Cl)cc1,"inconclusive: 18.5 µM [inhibitor, single point]"
11,O=C1S/C(=C\C=C\c2ccco2)C(=O)N1c1ccccc1,inactive
12,COc1ccc(Nc2nnc(-c3ccc(C)cc3)c3ccccc23)cc1C(=O)N1CCCCC1,active: 1.17 µM
13,CCOc1cc(CNc2ccc3cn[nH]c3c2)ccc1OC,active: 13.1 µM
14,COc1cc(NC(=O)c2ccc3snnc3c2)cc(OC)c1,inactive
15,Cc1ccc2cc(CN(Cc3ccccc3)Cc3nnnn3C3CCCC3)c(=O)[nH]c2c1,"inconclusive: 14.7 µM [inhibitor, single point]"
16,CCc1ccc(-n2c(=O)c3ccccc3n(CC(=O)NCc3ccco3)c2=O)cc1,"inconclusive: 4.15 µM [inhibitor, single point]"
17,CN1CCN(S(=O)(=O)c2cccc(C(=O)Nc3sccc3C(N)=O)c2)CC1,"inconclusive: 18.5 µM [inhibitor, single point]"
18,O=S(=O)(NC1CC1)c1ccc(F)c(F)c1,inactive
19,CCOC(=O)C1=C(N)N(c2ccccc2)C2=C(C(=O)CCC2)C1c1cccnc1 (stereo not drawn),active: 5.22 µM
20,N#C/C(=C\c1c(N2CCC(C(N)=O)CC2)nc2ccccn2c1=O)C(=O)NCc1ccco1,"inconclusive: 13.1 µM [inhibitor, single point]"
21,Cc1nc2c([nH]c3ccc(Br)cc32)s1,"inconclusive: 13.1 µM [inhibitor, single point]"
22,CC1CCCC(C)N1/N=C/c1ccc([N+](=O)[O-])cc1 (stereo not drawn),inactive
23,Cc1nc(-c2ccc(Cl)cc2)sc1C1(C)CC(c2ccccc2F)=NO1 (stereo not drawn),inactive
24,Cc1ccc(C)c(Sc2ccc(NC(=O)CCl)cc2)c1,"inconclusive: 5.22 µM [inhibitor, partial curve]"
25,COc1ccc(Cl)cc1NC(=O)N1CCN(CCc2ccccc2)CC1,inactive

# 3 entries picked at random from the list so far, as already listed:
row,SMILES,Potency
4,CCN1CCN(C(c2cccs2)C(C)NS(=O)(=O)c2ccc(Br)cc2)CC1 (stereo not drawn),"inconclusive: 16.5 µM [inhibitor, single point]"
3,COc1ccc(N2CCN(C(=O)C3CCCN(S(=O)(=O)c4c(C)noc4C)C3)CC2)cc1 (stereo not drawn),"inconclusive: 9.28 µM [inhibitor, partial curve, poor fit]"
7,O=C(NCCC1=CCCCC1)c1ccc(Cl)c(S(=O)(=O)Nc2ccccc2)c1,"inconclusive: 18.5 µM [inhibitor, single point]"

# (next part)

row,SMILES,Potency
1,CCN(Cc1nc2ccccc2c(=O)[nH]1)Cc1nc2ccsc2c(=O)[nH]1,active: 1.47 µM
2,CCOc1ccc(S(=O)(=O)N(CC)CC(=O)NCc2ccco2)cc1C,"inconclusive: 18.5 µM [inhibitor, single point]"
3,Oc1ccccc1CNCc1ccccc1,"inconclusive: 11.7 µM [inhibitor, single point]"
4,COc1ccc(N(CC(=O)N2CCN(Cc3ccccc3)CC2)S(C)(=O)=O)c(OC)c1,"inconclusive: 4.65 µM [inhibitor, partial curve, poor fit]"
5,CC(C)(C)NC(=O)c1cccc(NC(=O)CSc2ccccc2)c1,"inconclusive: 13.1 µM [inhibitor, partial curve]"
6,CC(=O)NS(=O)(=O)c1ccc(N=c2ssc3c2-c2ccc(C)cc2NC3(C)C)cc1,"inconclusive: 18.5 µM [inhibitor, single point]"
7,CCOc1ccc(N2CC(C(=O)Nc3ccc(S(=O)(=O)N4CCCCC4)cc3)CC2=O)cc1 (stereo not drawn),"inconclusive: 9.28 µM [inhibitor, partial curve]"
8,CCCNC(=O)c1onc(CSc2ccncc2)c1C(=O)NCCC,"inconclusive: 18.5 µM [inhibitor, single point]"
9,Cc1cccn2c(=O)c3cc(C(=O)N4COCC4(C)C)sc3nc12,inactive
10,CCCN1CCN(C(=O)c2cc(COc3ccc(F)c(F)c3)on2)CC1,inactive
11,Nc1ccccc1SCC(=O)Nc1nc(-c2ccccc2)cs1,"inconclusive: 10.4 µM [inhibitor, partial curve, poor fit]"
12,O=C(c1cc(C(=O)NCc2ccccc2)c(=O)n(Cc2ccccc2)c1)c1cc(Br)ccc1O,active: 0.415 µM
13,COc1ccc(Cl)cc1C(Nc1cccnc1)c1ccc2cccnc2c1O (stereo not drawn),"inconclusive: 10.4 µM [inhibitor, single point]"
14,Cc1ccc(C(=O)Nc2ccc(NC(=O)c3ccc(C)o3)cc2)o1,inactive
15,COc1ccc(Cl)cc1NC(=O)C1CCCN(c2ncnc3c2nc2n3CCCCC2)C1 (stereo not drawn),"inconclusive: 5.22 µM [inhibitor, partial curve, poor fit]"
16,CCc1cc2c(=O)c(-c3nc4ccccc4n3C)c(C)oc2cc1OC(C)=O,"inconclusive: 18.5 µM [inhibitor, single point]"
17,Cn1c(CCC(=O)Nc2ccc(F)cc2)nc2cc(S(=O)(=O)N3CCOCC3)ccc21,"inconclusive: 6.57 µM [inhibitor, partial curve]"
18,CCOc1cc(/C=C/C(=O)NCCc2ccc(S(N)(=O)=O)cc2)ccc1OCC(C)C,active: 0.657 µM
19,Cc1ccc(S(=O)(=O)N2CCC(C(=O)N3CCc4ccccc43)CC2)cc1,inactive
20,CCN(CC(=O)NCc1ccc(Cl)cc1)C(=O)c1ccc(S(=O)(=O)N(C)C)cc1,"inconclusive: 0.0828 µM [inhibitor, full curve, poor fit]"
21,CC1=CCC2C(=O)N(c3cccc(C(=O)NC(C)c4ccccc4)c3)C(=O)C2C1 (stereo not drawn),inactive
22,O=C(c1cccs1)N1CCN(c2nc3ccccc3s2)CC1,inactive
23,O=C1CCCC2=C1C(c1cccs1)Nc1ccccc1N2 (stereo not drawn),inactive
24,O=C(Cc1ccc(S(=O)(=O)N2CCOCC2)s1)N(Cc1ccccc1)c1ccccc1,active: 2.33 µM
25,CCc1cccc2c(C(=O)C(F)(F)F)cn(CC(=O)N3CCOCC3)c12,"inconclusive: 13.1 µM [inhibitor, single point]"

row,SMILES,Potency
1,CCC1CCCCN1c1nc2c(C=O)c(C)nn2c2ccccc12 (stereo not drawn),"inconclusive: 0.657 µM [inhibitor, full curve, poor fit]"
2,COC(=O)c1ccc(NC(=S)N2CCC(C(N)=O)CC2)cc1,"inconclusive: 18.5 µM [inhibitor, single point]"
3,CCOc1ccccc1NC(=O)c1ccc2c(c1)C(=O)N(CC)C2=O,inactive
4,Cc1cccc(C)c1NC(=O)CNC(=O)Cn1nc(C)c(C)c(C#N)c1=O,"inconclusive: 9.28 µM [inhibitor, partial curve, poor fit]"
5,Clc1ccc(-n2ncc3c(NCc4cccs4)ncnc32)cc1,"inconclusive: 9.28 µM [inhibitor, partial curve, poor fit]"
6,Nc1ccc(S(=O)(=O)C(F)(F)F)cc1N,inactive
7,Cc1nonc1C1CCCN1Cc1nc(-c2ccccc2Cl)oc1C (stereo not drawn),inactive
8,CCCCN(CC)C(=O)C1CCCN(S(=O)(=O)c2cccc3nsnc23)C1 (stereo not drawn),"inconclusive: 1.85 µM [inhibitor, full curve, poor fit]"
9,Cc1nc(NC(=O)C2CC2)sc1C(=O)Nc1ccccc1,"inconclusive: 18.5 µM [inhibitor, single point]"
10,O=C(NCc1cccnc1)c1ccccc1-c1ccccc1,inactive
11,Cc1ccc(C(=O)NCCn2cc(SCC(=O)Nc3nnc(C)s3)c3ccccc32)cc1,active: 4.15 µM
12,Cc1cc2c(cc1C)CSC(c1ccccc1OC(=O)C(C)(C)C)SC2,"inconclusive: 10.4 µM [inhibitor, single point]"
13,Cc1cc2oc(=O)cc(Cn3ncc(Cl)c(Cl)c3=O)c2cc1Cl,"inconclusive: 18.5 µM [inhibitor, single point]"
14,O=C(Nc1cccc(-c2nc3ccccc3[nH]2)c1)c1ccco1,active: 14.7 µM
15,COc1ccc(NC(=O)CSc2nnc(CNC(=O)COc3ccc(Cl)cc3)o2)c(OC)c1,active: 9.28 µM
16,c1ccc(C[n+]2c(-c3ccccc3)csc2Nc2ccccc2)cc1,active: 9.28 µM
17,C=CCn1c(C)nnc1SCC(=O)Nc1nc(C)c(C(=O)N(C)C)s1,"inconclusive: 14.7 µM [inhibitor, partial curve, poor fit]"
18,CCCCOc1ccc(-c2csc(N)n2)cc1[N+](=O)[O-],"inconclusive: 0.37 µM [inhibitor, full curve, poor fit]"
19,O=c1/c(=C/c2ccccc2)sc2nnc(-c3cccs3)n12,"inconclusive: 10.4 µM [inhibitor, partial curve, poor fit]"
20,COc1ccc(Nc2cc3n(c(=O)n2)CCc2cc(OC)c(OC)cc2-3)cc1,"inconclusive: 2.33 µM [inhibitor, partial curve, poor fit]"
21,Cc1ccc(C(=O)Nc2ccc(S(=O)(=O)N3CCCC3)cc2)cc1,inactive
22,COc1ccc(C2CC(c3cccs3)=NN2C(=O)CSc2nncs2)cc1OC (stereo not drawn),active: 10.4 µM
23,Oc1ccccc1N1CCN(c2nc(-c3cccs3)nc3ccccc23)CC1,"inconclusive: 4.65 µM [inhibitor, partial curve]"
